The results in this text go back to publication PMC3572039.

The target of this data set is T1, MBP-Δ116 (truncated XydR response regulator) del1-116 (UniProt B8I0K9).
T1 sequence (looked up): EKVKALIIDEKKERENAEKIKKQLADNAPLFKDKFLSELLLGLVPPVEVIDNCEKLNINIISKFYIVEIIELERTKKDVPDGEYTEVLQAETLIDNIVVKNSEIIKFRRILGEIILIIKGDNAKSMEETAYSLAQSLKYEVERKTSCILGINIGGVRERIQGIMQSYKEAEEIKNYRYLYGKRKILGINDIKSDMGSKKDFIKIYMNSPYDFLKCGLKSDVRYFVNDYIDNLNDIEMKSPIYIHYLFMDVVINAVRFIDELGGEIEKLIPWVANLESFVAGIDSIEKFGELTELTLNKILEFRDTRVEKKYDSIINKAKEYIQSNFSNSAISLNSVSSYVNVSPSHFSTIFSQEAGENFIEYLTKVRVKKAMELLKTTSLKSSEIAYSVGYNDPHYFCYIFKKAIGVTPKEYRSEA
The experiment in a line: EMSA. The conditions noted are these: 10 mM Tris pH 7.5, 150 mM KCl, 1 mM DTT, 30 ng/uL salmon sperm DNA, 0.1 ug/uL BSA, 0.05% NP-40, 2.5% glycerol, 20 C, 20 min; 20 fmol probe; 5% native PAGE; recombinant protein; residues 117-532; protein details: N-terminal MBP (pMAL-c2x); label: 3' biotin; probe letters rebuilt from the primers and the genome. (In general: A gel shift assay detects complexes by their altered migration in electrophoresis.)

No signal at the amounts used counts as a negative. Protein sequences can lack the tags named with them.

For the sequence “GAGGGACACTTCTTACAGGCGGAGTAGGTAATGTGGTTGGAAGCTTGTTTGGAGTAATGATAAAGGGTACAATAGAATCAATAATAACATTTCAGGGTACATTGTCCTCATGGTGGACAAAAATTGCAATAGCGGCCCTCCTTTGCATATTTATTATACTCCAGAGTATATTCGCAGCATTAAAGAGAAAGAGGCAGTTTTAACACTGTCTCTTTCAGTGCCCTCTTGCTTGAAGTACAAATGAGAGGAGAAATGTTAATGAAAATAAAAAAATATTTAGGTGTATCATTAAAATCAAAGATGAGAGCT (double strand) [R1 (upstream Ccel_1227)]”, the binding result is given as “no binding”.
